# Experimental data published in the supplement of paper PMC6411743.
# The chains behind the UniProt entries cited, without tags or fusion partners. Where a name states a change or a piece, a line headed by the entry shows the natural chain unless it says otherwise.
# UniProt Q5TKA1: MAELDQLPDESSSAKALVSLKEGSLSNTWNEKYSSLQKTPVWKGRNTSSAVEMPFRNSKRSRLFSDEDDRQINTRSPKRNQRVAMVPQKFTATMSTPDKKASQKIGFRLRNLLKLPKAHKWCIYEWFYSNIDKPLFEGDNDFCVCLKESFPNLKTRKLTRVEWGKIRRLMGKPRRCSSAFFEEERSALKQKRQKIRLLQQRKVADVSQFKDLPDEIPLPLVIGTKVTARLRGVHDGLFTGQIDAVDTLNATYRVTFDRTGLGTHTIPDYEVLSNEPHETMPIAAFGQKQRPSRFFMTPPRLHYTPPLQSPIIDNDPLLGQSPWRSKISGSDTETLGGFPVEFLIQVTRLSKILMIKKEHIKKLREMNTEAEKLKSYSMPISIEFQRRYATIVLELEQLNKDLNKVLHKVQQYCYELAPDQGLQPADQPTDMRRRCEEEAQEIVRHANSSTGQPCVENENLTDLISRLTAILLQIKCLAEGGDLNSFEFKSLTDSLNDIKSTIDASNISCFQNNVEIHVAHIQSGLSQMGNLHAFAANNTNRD
# UniProt Q16537, whole entry: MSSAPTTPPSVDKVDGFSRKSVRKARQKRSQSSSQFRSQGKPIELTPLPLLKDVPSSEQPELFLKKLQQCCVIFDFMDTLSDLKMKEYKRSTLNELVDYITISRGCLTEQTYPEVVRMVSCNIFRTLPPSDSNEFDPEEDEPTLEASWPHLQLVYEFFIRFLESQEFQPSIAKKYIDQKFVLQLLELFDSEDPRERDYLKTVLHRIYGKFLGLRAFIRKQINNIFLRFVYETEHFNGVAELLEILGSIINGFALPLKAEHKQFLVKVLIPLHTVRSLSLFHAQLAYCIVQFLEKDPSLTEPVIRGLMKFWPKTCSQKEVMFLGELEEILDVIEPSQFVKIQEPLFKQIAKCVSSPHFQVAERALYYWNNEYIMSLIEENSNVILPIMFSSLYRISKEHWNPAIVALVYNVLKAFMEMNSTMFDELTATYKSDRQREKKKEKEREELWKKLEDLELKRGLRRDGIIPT
# UniProt Q3YEC7: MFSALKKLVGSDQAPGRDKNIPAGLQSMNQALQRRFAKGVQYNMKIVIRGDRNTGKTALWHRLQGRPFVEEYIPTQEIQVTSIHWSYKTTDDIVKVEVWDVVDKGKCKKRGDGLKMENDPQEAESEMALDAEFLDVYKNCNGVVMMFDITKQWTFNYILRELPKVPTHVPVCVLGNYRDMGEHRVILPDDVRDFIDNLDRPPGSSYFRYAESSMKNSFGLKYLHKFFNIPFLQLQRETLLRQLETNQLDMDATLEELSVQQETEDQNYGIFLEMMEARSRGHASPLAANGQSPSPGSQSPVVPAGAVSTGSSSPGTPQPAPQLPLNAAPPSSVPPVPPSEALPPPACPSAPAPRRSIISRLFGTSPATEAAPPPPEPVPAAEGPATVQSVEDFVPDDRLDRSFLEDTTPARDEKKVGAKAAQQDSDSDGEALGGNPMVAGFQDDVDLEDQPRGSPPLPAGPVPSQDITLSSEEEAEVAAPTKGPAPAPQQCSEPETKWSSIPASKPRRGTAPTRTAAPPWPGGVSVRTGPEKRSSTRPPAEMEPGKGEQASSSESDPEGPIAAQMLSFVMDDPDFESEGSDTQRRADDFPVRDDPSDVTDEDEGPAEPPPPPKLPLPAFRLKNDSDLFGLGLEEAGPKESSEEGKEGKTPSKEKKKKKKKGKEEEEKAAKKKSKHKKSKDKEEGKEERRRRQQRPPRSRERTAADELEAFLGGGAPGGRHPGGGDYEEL
# UniProt Q15208: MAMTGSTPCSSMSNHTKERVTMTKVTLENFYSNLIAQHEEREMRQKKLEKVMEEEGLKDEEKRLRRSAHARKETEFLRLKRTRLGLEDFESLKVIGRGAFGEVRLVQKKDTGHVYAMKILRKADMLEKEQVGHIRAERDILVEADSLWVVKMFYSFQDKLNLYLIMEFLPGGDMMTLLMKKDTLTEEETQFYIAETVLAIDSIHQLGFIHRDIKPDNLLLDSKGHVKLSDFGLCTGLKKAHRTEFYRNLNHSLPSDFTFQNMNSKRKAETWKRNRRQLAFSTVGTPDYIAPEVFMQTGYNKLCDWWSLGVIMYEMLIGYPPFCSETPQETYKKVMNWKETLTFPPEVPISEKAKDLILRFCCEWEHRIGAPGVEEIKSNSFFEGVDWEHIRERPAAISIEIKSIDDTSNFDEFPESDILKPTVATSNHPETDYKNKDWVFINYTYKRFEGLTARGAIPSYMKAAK
# UniProt Q15181: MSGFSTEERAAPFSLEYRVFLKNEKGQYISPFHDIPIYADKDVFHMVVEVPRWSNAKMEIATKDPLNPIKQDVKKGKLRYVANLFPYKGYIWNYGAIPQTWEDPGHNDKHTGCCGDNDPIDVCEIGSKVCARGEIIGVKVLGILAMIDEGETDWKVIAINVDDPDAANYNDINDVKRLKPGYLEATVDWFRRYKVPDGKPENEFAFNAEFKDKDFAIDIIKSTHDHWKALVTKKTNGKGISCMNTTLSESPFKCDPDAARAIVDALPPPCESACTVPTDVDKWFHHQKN
# UniProt Q15545, whole entry: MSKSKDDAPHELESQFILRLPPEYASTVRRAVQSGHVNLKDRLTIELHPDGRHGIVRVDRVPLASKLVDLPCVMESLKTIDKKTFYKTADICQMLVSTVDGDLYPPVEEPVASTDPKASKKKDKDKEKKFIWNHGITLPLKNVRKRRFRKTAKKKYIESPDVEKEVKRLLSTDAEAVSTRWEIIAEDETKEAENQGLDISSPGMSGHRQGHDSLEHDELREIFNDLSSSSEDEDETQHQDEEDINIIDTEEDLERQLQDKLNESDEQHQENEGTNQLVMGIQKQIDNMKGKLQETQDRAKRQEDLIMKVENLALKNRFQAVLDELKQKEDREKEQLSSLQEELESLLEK
# UniProt Q9H6K1: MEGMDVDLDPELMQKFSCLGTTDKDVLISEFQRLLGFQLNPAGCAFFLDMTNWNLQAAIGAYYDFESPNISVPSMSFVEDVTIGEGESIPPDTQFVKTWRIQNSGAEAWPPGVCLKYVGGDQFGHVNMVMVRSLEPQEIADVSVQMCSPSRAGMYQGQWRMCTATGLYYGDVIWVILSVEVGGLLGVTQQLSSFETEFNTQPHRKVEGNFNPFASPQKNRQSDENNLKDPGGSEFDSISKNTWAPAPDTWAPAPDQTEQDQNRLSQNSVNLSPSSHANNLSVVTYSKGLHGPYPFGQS
# UniProt Q15233: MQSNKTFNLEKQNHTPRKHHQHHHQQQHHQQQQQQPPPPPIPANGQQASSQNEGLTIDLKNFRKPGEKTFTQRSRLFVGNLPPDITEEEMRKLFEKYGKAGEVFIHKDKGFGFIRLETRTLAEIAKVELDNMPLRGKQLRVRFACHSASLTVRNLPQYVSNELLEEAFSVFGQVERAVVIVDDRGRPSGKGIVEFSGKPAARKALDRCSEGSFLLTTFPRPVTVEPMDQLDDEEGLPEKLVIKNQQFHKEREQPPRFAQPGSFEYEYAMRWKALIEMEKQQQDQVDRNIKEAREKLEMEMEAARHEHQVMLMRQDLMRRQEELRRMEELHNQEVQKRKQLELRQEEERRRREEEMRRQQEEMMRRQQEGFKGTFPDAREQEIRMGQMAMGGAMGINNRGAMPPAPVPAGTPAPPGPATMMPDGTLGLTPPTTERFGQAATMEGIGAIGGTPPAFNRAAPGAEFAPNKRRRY
# UniProt Q2NKJ3: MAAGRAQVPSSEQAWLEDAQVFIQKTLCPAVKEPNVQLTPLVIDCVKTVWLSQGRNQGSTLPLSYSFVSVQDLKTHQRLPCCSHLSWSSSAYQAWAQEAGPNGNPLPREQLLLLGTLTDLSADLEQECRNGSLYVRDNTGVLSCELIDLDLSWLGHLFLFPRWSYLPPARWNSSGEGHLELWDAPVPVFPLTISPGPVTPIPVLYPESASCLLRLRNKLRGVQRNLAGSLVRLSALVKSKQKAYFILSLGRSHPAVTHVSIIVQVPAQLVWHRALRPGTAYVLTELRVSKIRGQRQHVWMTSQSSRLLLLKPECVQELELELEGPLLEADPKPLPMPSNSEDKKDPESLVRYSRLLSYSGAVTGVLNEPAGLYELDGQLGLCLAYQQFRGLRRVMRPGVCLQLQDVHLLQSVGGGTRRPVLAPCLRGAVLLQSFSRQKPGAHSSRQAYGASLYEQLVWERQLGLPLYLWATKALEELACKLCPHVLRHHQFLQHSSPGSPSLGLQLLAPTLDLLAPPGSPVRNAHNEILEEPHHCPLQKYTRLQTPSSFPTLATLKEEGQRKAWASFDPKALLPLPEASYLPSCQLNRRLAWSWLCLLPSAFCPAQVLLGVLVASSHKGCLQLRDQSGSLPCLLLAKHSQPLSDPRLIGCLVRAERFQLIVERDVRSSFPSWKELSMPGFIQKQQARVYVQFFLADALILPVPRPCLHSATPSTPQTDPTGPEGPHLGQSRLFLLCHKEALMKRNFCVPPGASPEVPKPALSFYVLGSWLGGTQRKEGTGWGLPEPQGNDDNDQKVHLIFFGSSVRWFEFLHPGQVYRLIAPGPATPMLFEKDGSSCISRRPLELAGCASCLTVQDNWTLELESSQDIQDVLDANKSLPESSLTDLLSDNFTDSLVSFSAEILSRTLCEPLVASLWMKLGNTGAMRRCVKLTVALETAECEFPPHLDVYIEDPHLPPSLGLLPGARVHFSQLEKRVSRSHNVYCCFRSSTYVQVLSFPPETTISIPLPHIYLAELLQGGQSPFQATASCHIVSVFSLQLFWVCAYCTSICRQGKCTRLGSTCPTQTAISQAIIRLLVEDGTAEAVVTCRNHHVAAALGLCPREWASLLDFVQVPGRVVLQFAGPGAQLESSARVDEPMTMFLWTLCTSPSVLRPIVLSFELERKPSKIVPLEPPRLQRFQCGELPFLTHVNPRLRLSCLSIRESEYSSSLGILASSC
# UniProt Q16222: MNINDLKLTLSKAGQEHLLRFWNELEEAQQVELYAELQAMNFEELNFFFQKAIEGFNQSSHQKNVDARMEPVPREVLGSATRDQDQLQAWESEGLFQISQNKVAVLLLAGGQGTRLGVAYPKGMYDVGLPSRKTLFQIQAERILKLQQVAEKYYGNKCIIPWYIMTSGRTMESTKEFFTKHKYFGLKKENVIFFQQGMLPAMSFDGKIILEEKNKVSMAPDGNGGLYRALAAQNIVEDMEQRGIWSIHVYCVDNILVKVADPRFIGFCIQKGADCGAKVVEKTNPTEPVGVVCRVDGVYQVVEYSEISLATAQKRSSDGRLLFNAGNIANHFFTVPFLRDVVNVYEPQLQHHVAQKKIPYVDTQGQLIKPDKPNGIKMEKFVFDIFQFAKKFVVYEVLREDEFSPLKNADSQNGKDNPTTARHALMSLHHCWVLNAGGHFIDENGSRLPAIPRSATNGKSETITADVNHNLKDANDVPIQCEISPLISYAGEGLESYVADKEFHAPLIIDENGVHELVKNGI
# UniProt Q15365, whole entry: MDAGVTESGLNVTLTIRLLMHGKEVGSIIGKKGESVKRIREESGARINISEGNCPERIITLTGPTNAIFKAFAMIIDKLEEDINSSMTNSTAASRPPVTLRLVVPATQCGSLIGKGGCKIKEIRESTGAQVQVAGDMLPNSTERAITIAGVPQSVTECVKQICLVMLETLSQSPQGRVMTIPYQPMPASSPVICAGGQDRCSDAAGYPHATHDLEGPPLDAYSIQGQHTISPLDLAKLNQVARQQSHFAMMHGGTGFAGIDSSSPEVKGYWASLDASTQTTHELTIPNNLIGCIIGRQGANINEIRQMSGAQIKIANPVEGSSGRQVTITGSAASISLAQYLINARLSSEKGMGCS
# UniProt Q58WW2: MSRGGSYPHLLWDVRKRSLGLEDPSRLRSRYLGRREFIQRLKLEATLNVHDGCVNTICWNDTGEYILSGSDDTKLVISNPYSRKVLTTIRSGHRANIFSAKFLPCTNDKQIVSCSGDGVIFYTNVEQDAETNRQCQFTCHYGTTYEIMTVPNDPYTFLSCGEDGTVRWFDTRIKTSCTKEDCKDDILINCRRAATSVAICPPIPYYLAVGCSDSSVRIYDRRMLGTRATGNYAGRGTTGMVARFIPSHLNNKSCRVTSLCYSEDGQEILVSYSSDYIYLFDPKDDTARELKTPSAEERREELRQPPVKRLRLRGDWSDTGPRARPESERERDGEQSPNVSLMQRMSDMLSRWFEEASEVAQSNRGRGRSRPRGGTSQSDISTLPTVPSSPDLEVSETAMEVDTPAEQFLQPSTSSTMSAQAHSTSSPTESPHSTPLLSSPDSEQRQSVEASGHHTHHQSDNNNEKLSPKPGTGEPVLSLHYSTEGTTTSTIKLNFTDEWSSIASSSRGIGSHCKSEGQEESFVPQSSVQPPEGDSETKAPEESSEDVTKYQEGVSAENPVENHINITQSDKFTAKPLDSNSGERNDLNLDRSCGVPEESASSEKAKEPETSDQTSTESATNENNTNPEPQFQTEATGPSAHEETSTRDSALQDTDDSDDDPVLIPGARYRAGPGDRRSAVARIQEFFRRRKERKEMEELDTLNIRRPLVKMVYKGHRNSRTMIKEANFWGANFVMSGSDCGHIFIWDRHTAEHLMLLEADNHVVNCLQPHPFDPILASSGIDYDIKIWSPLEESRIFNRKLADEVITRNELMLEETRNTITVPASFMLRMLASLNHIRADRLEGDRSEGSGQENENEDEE
# ± gives the standard deviation of the averaged measurements. Only a part is listed here, and it is no random draw. Small differences around the control level are noise.
# Compound: Nc1ncnc2c1ncn2[C@@H]1O[C@H](COP(=O)(O)OP(=O)(O)NP(=O)(O)O)[C@@H](O)[C@H]1O [adenylyl imidodiphosphate]
# Assay: NP40-soluble protein abundance relative to vehicle (solubility fold change) (ratio); higher = more soluble protein in presence of AMP-PNP
# Details: concentration: 0.1mM
# How it was run: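 In three independent experiments, Jurkat crude lysate made by Dounce homogenisation was treated for 10 min at room temperature and then 3 min at 37 °C with eight concentrations ranging from 0.1 to 10 mM. It was then solubilised with 0.8% NP40 plus benzonase for 60 min at 4 °C and ultracentrifuged. The supernatant was TMT-labelled for LC-MS/MS, and each value is the fold change against the detergent-processed vehicle for the same replicate, using vsn-normalised intensities.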
row,Target,NP40-soluble protein abundance
1,UniProt Q5TKA1 and related entries,0.992 ± 0.02
2,UniProt Q27J81 and related entries,1.01 ± 0.011
3,UniProt Q16537 and related entries,0.997 ± 0.027
4,DNAL1 (UniProt Q4LDG9),0.982 ± 0.04
5,ZNHIT3 (UniProt Q15649),0.986 ± 0.019
6,PTGES3 (UniProt Q15185),1 ± 0.051
7,UniProt Q16514-2|Q16514,1.01 ± 0.024
8,RSU1 (UniProt Q15404),1 ± 0.014
9,UniProt Q3YEC7,1 ± 0.03
10,UniProt Q15208,1.03 ± 0.017
11,UniProt Q5JSH3 and related entries,0.9859 ± 0.0088
12,TBC1D25 (UniProt Q3MII6),1.03 ± 0.015
13,ATP6AP1 (UniProt Q15904),1 ± 0.014
14,UniProt Q16181 and related entries,0.9853 ± 0.0087
15,PPA1 (UniProt Q15181),0.9789 ± 0.0076
16,TAF7 (UniProt Q15545),1 ± 0.017
17,UniProt Q5JS37 and related entries,0.983 ± 0.028
18,UniProt Q32P28 and related entries,0.978 ± 0.011
19,C9orf64 (UniProt Q5T6V5),1.05 ± 0.058

row,Target,NP40-soluble protein abundance
1,Q5JTV1 and related entries (UniProt Q9UKD1),0.991 ± 0.027
2,Q5TH58 and related entries (UniProt Q9H6K1),0.988 ± 0.029
3,UniProt Q15642-2|Q15642-3|Q15642-4|W4VSQ9 and related entries,1.061 ± 0.0058
4,UniProt Q5T2E6 and related entries,1 ± 0.047
5,CRTC2 (UniProt Q53ET0),0.999 ± 0.028
6,NONO (UniProt Q15233),0.995 ± 0.038
7,CTC1 (UniProt Q2NKJ3),0.9869 ± 0.0034
8,UniProt Q16222 and related entries,1.01 ± 0.042
9,QRICH1 (UniProt Q2TAL8),0.964 ± 0.018
10,Q5T5C7 (UniProt P49591),0.866 ± 0.25
11,UniProt Q5T3F8 and related entries,1.02 ± 0.1
12,TOMM34 (UniProt Q15785),0.988 ± 0.024
13,TSC22D1 (UniProt Q15714),0.9824 ± 0.0027
14,UniProt Q15365,0.993 ± 0.03
15,TST (UniProt Q16762),1 ± 0.017
16,ETFDH (UniProt Q16134),1.008 ± 0.0017
17,UniProt Q15149 and related entries,1.04 ± 0.045
18,Q5TBH9 and related entries (UniProt Q8NDD1),1 ± 0.029
19,UniProt Q58WW2 and related entries,0.998 ± 0.011

# For reference, part of the list above:
row,Target,NP40-soluble protein abundance
17,UniProt Q15149 and related entries,1.04 ± 0.045
18,Q5TBH9 and related entries (UniProt Q8NDD1),1 ± 0.029
